# Source: the supplement of paper PMC8728848
# The list shows a part of the results.
# How the values were obtained:
# Assay in all cases: glycan array binding signal (z-score within array); higher = stronger binding
# Settings in all cases: glycan notation: IUPAC condensed, linker removed
# [1] = molecular target: Neu5Ac(a2-3)Gal(b1-3)]Neu5Ac(a2-3)Gal(b1-4)]GlcNAc
# How it was run: (§1)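 Glycan array data came from 3228 arrays in the Consortium for Functional Glycomics database, and only arrays with an available protein sequence were kept. Glycan names were put into IUPAC-condensed notation, and columns mapping to the same glycan were averaged. The binding signal is a within-array Z-score, averaged across arrays of one protein sequence run at different concentrations or buffers and across linkers. A negative Z-score can be read as non-binding.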
# Neu5Ac(a2-3)Gal(b1-4)Glc = molecular target: Neu5Ac(a2-3)Gal(b1-4)Glc
# How it was run: as §1
# [2] = molecular target: Neu5Ac(a2-3)Gal(b1-4)GlcNAc
# How it was run: as §1
# [3] = molecular target: Neu5Ac(a2-3)Gal(b1-4)GlcNAc(b1-2)Man
# How it was run: as §1
# [4] = molecular target: Neu5Ac(a2-3)Gal(b1-4)GlcNAc(b1-2)Man(a1-3)[GlcNAc(b1-4)][Neu5Ac(a2-3)Gal(b1-4)GlcNAc(b1-2)Man(a1-6)]Man(b1-4)GlcNAc(b1-4)GlcNAc
# How it was run: as §1
# [5] = molecular target: Neu5Ac(a2-3)Gal(b1-4)GlcNAc(b1-2)Man(a1-3)[Neu5Ac(a2-3)Gal(b1-4)GlcNAc(b1-2)Man(a1-6)]Man(b1-4)GlcNAc(b1-4)GlcNAc
# How it was run: as §1
# [6] = molecular target: Neu5Ac(a2-3)Gal(b1-4)GlcNAc(b1-2)Man(a1-3)[Neu5Ac(a2-3)Gal(b1-4)GlcNAc(b1-2)Man(a1-6)]Man(b1-4)GlcNAc(b1-4)[Fuc(a1-6)]GlcNAc
# How it was run: as §1
# [7] = molecular target: Neu5Ac(a2-3)Gal(b1-4)GlcNAc(b1-2)Man(a1-3)[Neu5Ac(a2-6)Gal(b1-4)GlcNAc(b1-2)Man(a1-6)]Man(b1-4)GlcNAc(b1-4)GlcNAc
# How it was run: as §1
# [8] = molecular target: Neu5Ac(a2-3)Gal(b1-4)GlcNAc(b1-2)[Neu5Ac(a2-3)Gal(b1-4)GlcNAc(b1-4)]Man(a1-3)[GlcNAc(b1-4)][Neu5Ac(a2-3)Gal(b1-4)GlcNAc(b1-2)[Neu5Ac(a2-3)Gal(b1-4)GlcNAc(b1-6)]Man(a1-6)]Man(b1-4)GlcNAc(b1-4)GlcNAc
# How it was run: as §1
# [9] = molecular target: Neu5Ac(a2-3)Gal(b1-4)GlcNAc(b1-2)[Neu5Ac(a2-3)Gal(b1-4)GlcNAc(b1-4)]Man(a1-3)[GlcNAc(b1-4)][Neu5Ac(a2-3)Gal(b1-4)GlcNAc(b1-4)Man(a1-6)]Man(b1-4)GlcNAc(b1-4)GlcNAc
# How it was run: as §1
# [10] = molecular target: Neu5Ac(a2-3)Gal(b1-4)GlcNAc(b1-2)[Neu5Ac(a2-3)Gal(b1-4)GlcNAc(b1-6)]Man(a1-6)[Neu5Ac(a2-3)Gal(b1-4)GlcNAc(b1-2)Man(a1-3)][GlcNAc(b1-4)]Man(b1-4)GlcNAc(b1-4)GlcNAc
# How it was run: as §1
# [11] = molecular target: Neu5Ac(a2-3)Gal(b1-4)GlcNAc(b1-3)Gal
# How it was run: as §1
# [12] = molecular target: Neu5Ac(a2-3)Gal(b1-4)GlcNAc(b1-3)Gal(b1-3)GlcNAc
# How it was run: as §1
# [13] = molecular target: Neu5Ac(a2-3)Gal(b1-4)GlcNAc(b1-3)Gal(b1-4)GlcNAc
# How it was run: as §1
# [14] = molecular target: Neu5Ac(a2-3)Gal(b1-4)GlcNAc(b1-3)Gal(b1-4)GlcNAc(b1-2)Man(a1-3)[Neu5Ac(a2-3)Gal(b1-4)GlcNAc(b1-3)Gal(b1-4)GlcNAc(b1-2)Man(a1-6)]Man(b1-4)GlcNAc(b1-4)GlcNAc
# How it was run: as §1
# [15] = molecular target: Neu5Ac(a2-3)Gal(b1-4)GlcNAc(b1-3)Gal(b1-4)GlcNAc(b1-3)Gal(b1-4)GlcNAc
# How it was run: as §1
# [16] = molecular target: Neu5Ac(a2-3)Gal(b1-4)GlcNAc(b1-3)Gal(b1-4)GlcNAc(b1-3)Gal(b1-4)GlcNAc(b1-2)Man(a1-3)[Neu5Ac(a2-3)Gal(b1-4)GlcNAc(b1-3)Gal(b1-4)GlcNAc(b1-3)Gal(b1-4)GlcNAc(b1-2)Man(a1-6)]GalNAc
# How it was run: as §1
# [17] = molecular target: Neu5Ac(a2-3)Gal(b1-4)GlcNAc(b1-3)Gal(b1-4)GlcNAc(b1-3)GalNAc
# How it was run: as §1
# [18] = molecular target: Neu5Ac(a2-3)Gal(b1-4)GlcNAc(b1-3)Gal(b1-4)GlcNAc(b1-3)[Neu5Ac(a2-3)Gal(b1-4)GlcNAc(b1-3)Gal(b1-4)GlcNAc(b1-6)]GalNAc
# How it was run: as §1
# [19] = molecular target: Neu5Ac(a2-3)Gal(b1-4)GlcNAc(b1-3)Gal(b1-4)GlcNAc(b1-6)[Gal(b1-3)]GalNAc
# How it was run: as §1
# [20] = molecular target: Neu5Ac(a2-3)Gal(b1-4)GlcNAc(b1-3)Gal(b1-4)[Fuc(a1-3)]GlcNAc
# How it was run: as §1
# [21] = molecular target: Neu5Ac(a2-3)Gal(b1-4)GlcNAc(b1-3)GalNAc
# How it was run: as §1
# [22] = molecular target: Neu5Ac(a2-3)Gal(b1-4)GlcNAc(b1-3)[Neu5Ac(a2-3)Gal(b1-4)GlcNAc(b1-6)]GalNAc
# How it was run: as §1
# [23] = molecular target: Neu5Ac(a2-3)Gal(b1-4)GlcNAc(b1-6)GalNAc
# How it was run: as §1
# [24] = molecular target: Neu5Ac(a2-3)Gal(b1-4)GlcNAc(b1-6)[Gal(b1-3)]GalNAc
# How it was run: as §1
# [25] = molecular target: Neu5Ac(a2-3)Gal(b1-4)GlcNAc(b1-6)[Neu5Ac(a2-3)Gal(b1-3)]GalNAc
# How it was run: as §1
# [26] = molecular target: Neu5Ac(a2-3)Gal(b1-4)GlcNAc6S
# How it was run: as §1
# [27] = molecular target: Neu5Ac(a2-3)Gal(b1-4)[Fuc(a1-3)]GlcNAc
# How it was run: as §1
# [28] = molecular target: Neu5Ac(a2-3)Gal(b1-4)[Fuc(a1-3)]GlcNAc(b1-2)Man
# How it was run: as §1
# [29] = molecular target: Neu5Ac(a2-3)Gal(b1-4)[Fuc(a1-3)]GlcNAc(b1-3)Gal
# How it was run: as §1
# [30] = molecular target: Neu5Ac(a2-3)Gal(b1-4)[Fuc(a1-3)]GlcNAc(b1-3)Gal(b1-4)GlcNAc
# How it was run: as §1
# [31] = molecular target: Neu5Ac(a2-3)Gal(b1-4)[Fuc(a1-3)]GlcNAc(b1-3)Gal(b1-4)[Fuc(a1-3)]GlcNAc(b1-3)Gal(b1-4)[Fuc(a1-3)]GlcNAc
# How it was run: as §1
# [32] = molecular target: Neu5Ac(a2-3)Gal(b1-4)[Fuc(a1-3)]GlcNAc(b1-3)GalNAc
# How it was run: as §1
# [33] = molecular target: Neu5Ac(a2-3)Gal(b1-4)[Fuc(a1-3)]GlcNAc(b1-6)[Gal(b1-3)]GalNAc
# How it was run: as §1
# [34] = molecular target: Neu5Ac(a2-3)Gal(b1-4)[Fuc(a1-3)]GlcNAc(b1-6)[Neu5Ac(a2-3)Gal(b1-3)]GalNAc
# How it was run: as §1
# [35] = molecular target: Neu5Ac(a2-3)Gal(b1-4)[Fuc(a1-3)]GlcNAc6S
# How it was run: as §1
# [36] = molecular target: Neu5Ac(a2-3)Gal6S(b1-4)GlcNAc
# How it was run: as §1
# [37] = molecular target: Neu5Ac(a2-3)Gal6S(b1-4)[Fuc(a1-3)]GlcNAc
# How it was run: as §1
binder,measurement,setting,value
Mermaid1 (Stilbonema majum) (protein) MGSSHHHHHHSSGLVPRGSHMAASGWLRSPQGTVVKLYRRSLSWSKADEFCKDVDGRLVVDRTADMHLFLIKNVLKEKKSRVWVGLRRTAPHSRTWIWSDGTRQNEDDLDANLWLRDEPNDAAGEEECALFMYSPWEKAWGLNDYLCRGGCRSYQFICEKWIR,glycan array binding signal (z-score),[1],0.122
same,glycan array binding signal (z-score),Neu5Ac(a2-3)Gal(b1-4)Glc,0.227
same,glycan array binding signal (z-score),[2],-0.445
same,glycan array binding signal (z-score),[3],-0.018
same,glycan array binding signal (z-score),[4],-0.132
same,glycan array binding signal (z-score),[5],-0.397
same,glycan array binding signal (z-score),[6],-0.492
same,glycan array binding signal (z-score),[7],0.133
same,glycan array binding signal (z-score),[8],-0.428
same,glycan array binding signal (z-score),[9],-0.247
same,glycan array binding signal (z-score),[10],-0.848
same,glycan array binding signal (z-score),[11],-0.376
same,glycan array binding signal (z-score),[12],-0.917
same,glycan array binding signal (z-score),[13],-0.754
same,glycan array binding signal (z-score),[14],0.278
same,glycan array binding signal (z-score),[15],-0.85
same,glycan array binding signal (z-score),[16],1.49
same,glycan array binding signal (z-score),[17],-0.766
same,glycan array binding signal (z-score),[18],0.32
same,glycan array binding signal (z-score),[19],-0.542
same,glycan array binding signal (z-score),[20],0.304
same,glycan array binding signal (z-score),[21],-0.493
same,glycan array binding signal (z-score),[22],-0.574
same,glycan array binding signal (z-score),[23],-0.457
same,glycan array binding signal (z-score),[24],5.42
same,glycan array binding signal (z-score),[25],-0.446
same,glycan array binding signal (z-score),[26],-0.072
same,glycan array binding signal (z-score),[27],-0.659
same,glycan array binding signal (z-score),[28],-0.971
same,glycan array binding signal (z-score),[29],-0.744
same,glycan array binding signal (z-score),[30],-0.359
same,glycan array binding signal (z-score),[31],-0.316
same,glycan array binding signal (z-score),[32],-0.05
same,glycan array binding signal (z-score),[33],0.711
same,glycan array binding signal (z-score),[34],-0.696
same,glycan array binding signal (z-score),[35],-0.228
same,glycan array binding signal (z-score),[36],-0.689
same,glycan array binding signal (z-score),[37],-0.314

# Reformatted: entries from further up
binder	measurement	setting	value
Mermaid1 (Stilbonema majum) (protein) MGSSHHHHHHSSGLVPRGSHMAASGWLRSPQGTVVKLYRRSLSWSKADEFCKDVDGRLVVDRTADMHLFLIKNVLKEKKSRVWVGLRRTAPHSRTWIWSDGTRQNEDDLDANLWLRDEPNDAAGEEECALFMYSPWEKAWGLNDYLCRGGCRSYQFICEKWIR	glycan array binding signal (z-score)	[16]	1.49
same	glycan array binding signal (z-score)	[17]	-0.766
same	glycan array binding signal (z-score)	[18]	0.32
